# From the supplement of paper PMC6411743
# Amino acid sequences for entries named in this document (tags omitted). A change or cut given only in a name is not applied to a line headed by its entry.
# UniProt Q8NAV1: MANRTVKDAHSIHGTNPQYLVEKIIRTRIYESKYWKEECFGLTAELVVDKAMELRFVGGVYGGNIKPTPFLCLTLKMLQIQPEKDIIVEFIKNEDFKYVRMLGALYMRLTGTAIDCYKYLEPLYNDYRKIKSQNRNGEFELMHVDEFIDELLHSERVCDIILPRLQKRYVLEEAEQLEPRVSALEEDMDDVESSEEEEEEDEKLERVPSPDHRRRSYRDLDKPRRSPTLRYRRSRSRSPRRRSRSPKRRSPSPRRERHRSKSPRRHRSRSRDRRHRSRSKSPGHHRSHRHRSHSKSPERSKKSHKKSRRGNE
# UniProt Q8TB72: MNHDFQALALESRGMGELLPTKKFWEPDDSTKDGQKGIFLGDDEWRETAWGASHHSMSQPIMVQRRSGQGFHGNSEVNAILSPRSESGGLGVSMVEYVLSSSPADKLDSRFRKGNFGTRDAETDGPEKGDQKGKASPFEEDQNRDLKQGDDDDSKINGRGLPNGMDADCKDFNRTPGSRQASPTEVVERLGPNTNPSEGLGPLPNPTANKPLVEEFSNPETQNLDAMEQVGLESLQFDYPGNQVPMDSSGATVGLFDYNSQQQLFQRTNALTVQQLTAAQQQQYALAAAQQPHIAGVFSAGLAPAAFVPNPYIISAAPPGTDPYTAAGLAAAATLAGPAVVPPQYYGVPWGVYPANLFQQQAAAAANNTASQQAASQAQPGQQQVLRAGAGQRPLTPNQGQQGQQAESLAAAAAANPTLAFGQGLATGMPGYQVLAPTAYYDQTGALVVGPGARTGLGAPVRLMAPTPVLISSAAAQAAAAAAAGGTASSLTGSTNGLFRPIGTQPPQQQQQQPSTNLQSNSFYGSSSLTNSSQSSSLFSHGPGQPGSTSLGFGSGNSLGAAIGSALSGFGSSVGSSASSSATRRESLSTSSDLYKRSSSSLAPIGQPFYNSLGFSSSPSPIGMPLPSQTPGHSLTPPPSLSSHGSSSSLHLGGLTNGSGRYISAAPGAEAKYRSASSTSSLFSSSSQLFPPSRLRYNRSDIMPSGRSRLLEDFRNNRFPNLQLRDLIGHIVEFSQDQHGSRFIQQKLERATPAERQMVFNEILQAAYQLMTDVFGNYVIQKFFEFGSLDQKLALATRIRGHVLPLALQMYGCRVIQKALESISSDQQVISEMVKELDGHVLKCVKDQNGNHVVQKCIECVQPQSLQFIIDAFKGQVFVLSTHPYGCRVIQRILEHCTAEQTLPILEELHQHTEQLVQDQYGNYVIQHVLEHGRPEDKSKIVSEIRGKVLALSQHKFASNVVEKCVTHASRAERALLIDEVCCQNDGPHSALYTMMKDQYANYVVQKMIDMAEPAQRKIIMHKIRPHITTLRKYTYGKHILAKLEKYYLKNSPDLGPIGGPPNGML
# UniProt Q8NC60: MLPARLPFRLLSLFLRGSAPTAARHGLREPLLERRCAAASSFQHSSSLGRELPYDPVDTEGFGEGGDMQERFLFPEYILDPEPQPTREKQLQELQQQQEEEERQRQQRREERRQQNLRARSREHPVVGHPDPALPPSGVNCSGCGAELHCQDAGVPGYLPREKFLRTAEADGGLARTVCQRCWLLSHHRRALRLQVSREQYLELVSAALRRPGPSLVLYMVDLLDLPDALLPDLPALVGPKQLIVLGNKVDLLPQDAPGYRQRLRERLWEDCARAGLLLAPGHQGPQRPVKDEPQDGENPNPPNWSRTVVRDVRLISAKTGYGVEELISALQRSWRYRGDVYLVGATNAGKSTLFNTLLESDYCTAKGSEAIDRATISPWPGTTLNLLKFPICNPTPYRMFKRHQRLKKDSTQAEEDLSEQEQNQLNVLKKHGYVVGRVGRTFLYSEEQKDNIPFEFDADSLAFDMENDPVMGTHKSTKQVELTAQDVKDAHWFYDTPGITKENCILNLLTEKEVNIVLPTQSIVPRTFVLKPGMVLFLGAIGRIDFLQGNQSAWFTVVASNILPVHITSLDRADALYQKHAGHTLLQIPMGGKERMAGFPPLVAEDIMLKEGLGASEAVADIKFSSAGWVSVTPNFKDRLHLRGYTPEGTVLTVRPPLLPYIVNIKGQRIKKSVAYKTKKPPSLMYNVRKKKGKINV
# UniProt Q8N5C7: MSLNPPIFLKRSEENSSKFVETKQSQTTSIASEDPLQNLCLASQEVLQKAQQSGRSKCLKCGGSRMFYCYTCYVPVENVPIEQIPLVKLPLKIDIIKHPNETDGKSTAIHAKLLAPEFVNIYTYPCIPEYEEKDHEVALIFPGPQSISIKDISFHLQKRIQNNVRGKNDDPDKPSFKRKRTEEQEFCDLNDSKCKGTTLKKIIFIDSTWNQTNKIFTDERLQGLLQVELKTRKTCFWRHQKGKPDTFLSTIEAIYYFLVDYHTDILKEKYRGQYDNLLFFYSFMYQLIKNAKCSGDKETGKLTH
# UniProt Q8TBB5: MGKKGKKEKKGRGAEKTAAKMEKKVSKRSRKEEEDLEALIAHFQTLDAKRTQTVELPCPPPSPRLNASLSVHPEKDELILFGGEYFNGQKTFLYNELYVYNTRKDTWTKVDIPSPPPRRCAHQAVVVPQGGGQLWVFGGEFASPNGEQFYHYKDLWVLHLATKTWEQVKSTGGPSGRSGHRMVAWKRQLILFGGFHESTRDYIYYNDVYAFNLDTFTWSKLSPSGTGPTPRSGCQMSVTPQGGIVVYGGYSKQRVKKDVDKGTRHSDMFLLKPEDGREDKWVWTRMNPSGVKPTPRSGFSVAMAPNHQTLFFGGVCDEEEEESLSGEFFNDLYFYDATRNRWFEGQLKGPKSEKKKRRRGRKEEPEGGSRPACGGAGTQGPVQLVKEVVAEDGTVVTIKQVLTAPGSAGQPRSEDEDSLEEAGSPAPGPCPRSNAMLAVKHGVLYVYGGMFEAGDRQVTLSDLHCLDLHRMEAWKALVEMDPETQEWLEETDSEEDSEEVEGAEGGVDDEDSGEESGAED
# UniProt Q8TDX7: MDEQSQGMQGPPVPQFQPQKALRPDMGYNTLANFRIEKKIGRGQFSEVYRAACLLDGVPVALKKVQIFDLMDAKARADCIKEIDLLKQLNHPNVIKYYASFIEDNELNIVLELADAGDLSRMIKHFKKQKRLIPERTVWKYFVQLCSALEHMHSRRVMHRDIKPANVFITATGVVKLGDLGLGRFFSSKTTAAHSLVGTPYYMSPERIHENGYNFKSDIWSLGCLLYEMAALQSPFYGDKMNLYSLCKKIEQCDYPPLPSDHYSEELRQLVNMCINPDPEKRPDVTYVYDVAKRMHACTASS
# UniProt Q8IYL3: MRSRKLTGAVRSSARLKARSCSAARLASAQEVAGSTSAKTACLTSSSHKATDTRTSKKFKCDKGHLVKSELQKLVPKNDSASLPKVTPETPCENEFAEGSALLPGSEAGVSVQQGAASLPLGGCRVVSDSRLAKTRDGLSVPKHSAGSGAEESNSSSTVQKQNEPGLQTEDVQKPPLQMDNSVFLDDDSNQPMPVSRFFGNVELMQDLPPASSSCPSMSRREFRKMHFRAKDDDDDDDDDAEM
# UniProt Q8IUH3: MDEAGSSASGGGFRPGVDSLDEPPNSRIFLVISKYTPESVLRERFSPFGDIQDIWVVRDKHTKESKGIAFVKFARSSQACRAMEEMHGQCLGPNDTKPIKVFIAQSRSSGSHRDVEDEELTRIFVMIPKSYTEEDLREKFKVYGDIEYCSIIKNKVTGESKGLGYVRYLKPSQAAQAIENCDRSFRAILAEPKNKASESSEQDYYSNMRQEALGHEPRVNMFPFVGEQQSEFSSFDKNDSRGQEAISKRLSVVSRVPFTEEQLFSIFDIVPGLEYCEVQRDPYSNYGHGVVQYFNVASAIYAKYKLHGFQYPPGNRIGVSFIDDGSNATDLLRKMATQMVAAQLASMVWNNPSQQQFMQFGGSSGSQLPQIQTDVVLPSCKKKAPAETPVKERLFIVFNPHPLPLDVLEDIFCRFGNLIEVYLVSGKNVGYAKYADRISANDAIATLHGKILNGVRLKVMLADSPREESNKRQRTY
# UniProt Q8IWJ2: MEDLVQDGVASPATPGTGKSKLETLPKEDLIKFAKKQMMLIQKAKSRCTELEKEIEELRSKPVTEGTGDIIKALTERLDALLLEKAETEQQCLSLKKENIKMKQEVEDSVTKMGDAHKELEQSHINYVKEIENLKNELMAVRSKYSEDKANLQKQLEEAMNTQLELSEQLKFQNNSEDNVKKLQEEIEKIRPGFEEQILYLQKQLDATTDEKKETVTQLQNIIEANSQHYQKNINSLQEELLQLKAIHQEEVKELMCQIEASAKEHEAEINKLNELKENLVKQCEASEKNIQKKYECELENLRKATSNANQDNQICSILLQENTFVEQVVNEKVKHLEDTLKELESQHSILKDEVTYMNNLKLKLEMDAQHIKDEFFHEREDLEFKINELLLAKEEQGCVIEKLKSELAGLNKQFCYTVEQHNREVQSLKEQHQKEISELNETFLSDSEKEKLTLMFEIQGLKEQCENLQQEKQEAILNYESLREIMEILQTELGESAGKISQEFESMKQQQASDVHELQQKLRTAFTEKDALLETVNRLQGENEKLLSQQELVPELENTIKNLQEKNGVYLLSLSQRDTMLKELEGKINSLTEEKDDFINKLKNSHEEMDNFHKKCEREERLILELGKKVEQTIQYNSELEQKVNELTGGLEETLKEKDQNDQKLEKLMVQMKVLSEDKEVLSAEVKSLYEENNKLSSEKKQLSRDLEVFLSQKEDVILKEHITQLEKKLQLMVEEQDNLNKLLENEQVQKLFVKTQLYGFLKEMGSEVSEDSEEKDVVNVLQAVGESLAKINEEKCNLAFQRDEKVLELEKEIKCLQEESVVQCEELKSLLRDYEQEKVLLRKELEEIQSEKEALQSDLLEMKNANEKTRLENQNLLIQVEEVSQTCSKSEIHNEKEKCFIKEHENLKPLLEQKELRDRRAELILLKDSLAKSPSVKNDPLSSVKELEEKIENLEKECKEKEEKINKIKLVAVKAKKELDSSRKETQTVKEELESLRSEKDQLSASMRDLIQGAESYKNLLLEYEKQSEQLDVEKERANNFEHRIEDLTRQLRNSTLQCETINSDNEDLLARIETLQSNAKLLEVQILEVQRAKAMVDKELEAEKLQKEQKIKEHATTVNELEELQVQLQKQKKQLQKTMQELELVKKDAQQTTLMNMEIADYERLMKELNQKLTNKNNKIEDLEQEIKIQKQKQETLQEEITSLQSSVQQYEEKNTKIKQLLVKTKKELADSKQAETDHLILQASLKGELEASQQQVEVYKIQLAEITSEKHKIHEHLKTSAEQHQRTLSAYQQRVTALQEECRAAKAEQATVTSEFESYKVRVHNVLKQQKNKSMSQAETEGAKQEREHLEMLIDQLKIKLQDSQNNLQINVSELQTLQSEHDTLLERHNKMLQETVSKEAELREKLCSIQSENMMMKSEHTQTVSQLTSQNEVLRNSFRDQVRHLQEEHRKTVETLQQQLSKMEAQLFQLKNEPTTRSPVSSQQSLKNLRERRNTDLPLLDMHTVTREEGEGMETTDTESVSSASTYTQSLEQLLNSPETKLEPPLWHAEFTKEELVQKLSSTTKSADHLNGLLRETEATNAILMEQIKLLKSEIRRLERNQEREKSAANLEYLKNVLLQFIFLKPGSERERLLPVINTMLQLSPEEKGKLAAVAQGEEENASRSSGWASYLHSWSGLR
# UniProt Q8N567: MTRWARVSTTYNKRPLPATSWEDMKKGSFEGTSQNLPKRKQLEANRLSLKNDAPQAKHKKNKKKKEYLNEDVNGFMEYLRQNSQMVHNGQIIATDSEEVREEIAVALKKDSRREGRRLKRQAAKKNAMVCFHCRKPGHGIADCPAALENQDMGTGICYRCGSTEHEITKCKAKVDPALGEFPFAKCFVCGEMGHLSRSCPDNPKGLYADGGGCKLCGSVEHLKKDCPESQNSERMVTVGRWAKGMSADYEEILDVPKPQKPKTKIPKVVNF
# UniProt Q8ND24: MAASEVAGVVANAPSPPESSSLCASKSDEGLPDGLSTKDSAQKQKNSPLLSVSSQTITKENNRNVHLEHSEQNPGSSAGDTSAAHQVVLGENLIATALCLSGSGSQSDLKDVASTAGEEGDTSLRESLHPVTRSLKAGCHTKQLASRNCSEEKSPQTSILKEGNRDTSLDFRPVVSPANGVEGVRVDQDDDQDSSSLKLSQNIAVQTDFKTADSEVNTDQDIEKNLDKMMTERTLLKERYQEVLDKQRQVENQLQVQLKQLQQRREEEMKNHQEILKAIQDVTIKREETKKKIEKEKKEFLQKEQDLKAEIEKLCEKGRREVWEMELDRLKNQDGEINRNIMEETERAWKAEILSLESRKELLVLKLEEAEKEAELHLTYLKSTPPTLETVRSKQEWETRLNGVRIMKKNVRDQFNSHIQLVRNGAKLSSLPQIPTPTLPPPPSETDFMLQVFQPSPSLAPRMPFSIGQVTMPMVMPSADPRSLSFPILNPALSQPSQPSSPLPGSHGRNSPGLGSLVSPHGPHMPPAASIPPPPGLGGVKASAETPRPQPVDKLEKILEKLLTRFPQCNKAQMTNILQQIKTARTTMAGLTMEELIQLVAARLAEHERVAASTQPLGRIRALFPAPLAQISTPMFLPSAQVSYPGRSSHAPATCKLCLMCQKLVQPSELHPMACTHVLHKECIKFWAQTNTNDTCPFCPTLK
# ± gives the standard deviation of the averaged measurements. The list shows a part of the results.
# Compound: Nc1nc2c(ncn2[C@@H]2O[C@H](COP(=O)(O)OP(=O)(O)OP(=O)(O)O)[C@@H](O)[C@H]2O)c(=O)[nH]1 [guanosine triphosphate]
# Test: NP40-soluble protein abundance relative to vehicle (solubility fold change) (ratio); higher = more soluble protein in presence of GTP
# Method in brief: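 Values are fold changes against the detergent-processed vehicle, based on vsn-normalised intensities. Jurkat crude lysate was treated at eight concentrations from 0.1 to 10 mM (10 min at room temperature, then 3 min at 37 °C), solubilised with 0.8% NP40 and benzonase, ultracentrifuged and analysed by TMT-labelled LC-MS/MS over three independent experiments.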
Target,NP40-soluble protein abundance (concentration: 0.1mM),NP40-soluble protein abundance (concentration: 0.5mM),NP40-soluble protein abundance (concentration: 1mM),NP40-soluble protein abundance (concentration: 2mM),NP40-soluble protein abundance (concentration: 4mM),NP40-soluble protein abundance (concentration: 6mM),NP40-soluble protein abundance (concentration: 8mM),NP40-soluble protein abundance (concentration: 10mM)
DDX51 (UniProt Q8N8A6),1.07 ± 0.15,1.11 ± 0.05,1.2 ± 0.08,1.35 ± 0.09,1.64 ± 0.085,1.86 ± 0.21,2.05 ± 0.24,2.1 ± 0.15
PRPF38A (UniProt Q8NAV1),0.933 ± 0.018,0.938 ± 0.049,1.03 ± 0.056,0.953 ± 0.018,0.96 ± 0.046,0.974 ± 0.059,0.95 ± 0.068,0.954 ± 0.055
UniProt Q8TB72 and related entries,1.03 ± 0.032,0.99 ± 0.023,0.999 ± 0.015,0.959 ± 0.029,0.987 ± 0.011,0.944 ± 0.02,0.965 ± 0.015,0.942 ± 0.047
UniProt Q8NC60,1 ± 0.022,1.05 ± 0.022,0.955 ± 0.048,0.884 ± 0.078,0.863 ± 0.067,0.907 ± 0.048,0.932 ± 0.024,0.861 ± 0.041
LSM14A (UniProt Q8ND56),0.953 ± 0.052,0.934 ± 0.087,0.98 ± 0.074,0.947 ± 0.097,0.952 ± 0.1,0.954 ± 0.11,0.982 ± 0.072,0.995 ± 0.081
UniProt Q8TDD1 and related entries,1.03 ± 0.0051,1.03 ± 0.042,1.07 ± 0.04,1.13 ± 0.024,1.234 ± 0.0045,1.3 ± 0.035,1.35 ± 0.032,1.53 ± 0.033
IRF2BP1 (UniProt Q8IU81),0.989 ± 0.05,0.969 ± 0.042,0.976 ± 0.061,0.956 ± 0.069,0.95 ± 0.071,0.946 ± 0.055,0.964 ± 0.047,0.982 ± 0.069
NUP210 (UniProt Q8TEM1),0.983 ± 0.023,0.9845 ± 0.0064,0.957 ± 0.021,0.969 ± 0.019,0.9726 ± 0.009,0.977 ± 0.019,0.976 ± 0.013,1.006 ± 0.0064
UniProt Q8N5C7 and related entries,1.07 ± 0.046,1.07 ± 0.03,1.09 ± 0.02,1 ± 0.089,1.01 ± 0.043,0.996 ± 0.048,1.055 ± 0.0044,1.09 ± 0.051
UniProt Q8TBB5 and related entries,1.01 ± 0.035,1.06 ± 0.028,1.01 ± 0.016,1 ± 0.054,0.974 ± 0.022,0.989 ± 0.052,1.02 ± 0.056,0.977 ± 0.041
NEK7 (UniProt Q8TDX7),1.025 ± 0.0041,1 ± 0.066,0.965 ± 0.014,0.944 ± 0.0075,0.956 ± 0.021,0.945 ± 0.026,0.9061 ± 0.0028,0.891 ± 0.015
ZCRB1 (UniProt Q8TBF4),1.05 ± 0.033,1.03 ± 0.062,1.08 ± 0.044,1.1 ± 0.039,1.03 ± 0.04,1.07 ± 0.11,1.12 ± 0.043,1.16 ± 0.02
C1orf174 (UniProt Q8IYL3),0.964 ± 0.048,0.944 ± 0.066,1.16 ± 0.11,1.15 ± 0.11,1.22 ± 0.13,1.25 ± 0.099,1.24 ± 0.13,1.33 ± 0.057
UniProt Q8IUH3 and related entries,0.9734 ± 0.0039,1.02 ± 0.038,1.01 ± 0.048,1.05 ± 0.039,1.06 ± 0.028,1.06 ± 0.072,1.09 ± 0.098,1.08 ± 0.079
EXOC8 (UniProt Q8IYI6),0.997 ± 0.04,0.996 ± 0.06,0.976 ± 0.053,0.958 ± 0.039,0.957 ± 0.049,0.949 ± 0.042,0.971 ± 0.016,0.963 ± 0.053
UniProt Q86YS7 and related entries,0.9788 ± 0.0071,1 ± 0.038,0.942 ± 0.05,1 ± 0.057,0.968 ± 0.042,1 ± 0.048,0.981 ± 0.054,1.01 ± 0.082
GCC2 (UniProt Q8IWJ2),0.972 ± 0.04,0.957 ± 0.043,0.998 ± 0.054,0.967 ± 0.078,0.96 ± 0.078,0.941 ± 0.06,0.993 ± 0.019,0.953 ± 0.05
KRI1 (UniProt Q8N9T8),0.988 ± 0.043,0.975 ± 0.062,1.04 ± 0.045,1.03 ± 0.096,1.08 ± 0.064,1.13 ± 0.071,1.23 ± 0.085,1.23 ± 0.051
GIMAP7 (UniProt Q8NHV1),1 ± 0.026,1.03 ± 0.03,1.06 ± 0.16,1.02 ± 0.085,1.08 ± 0.16,1.07 ± 0.18,1.07 ± 0.19,1.06 ± 0.22
UniProt Q8NB15-2,1.04 ± 0.17,1.03 ± 0.12,1.03 ± 0.15,1.04 ± 0.19,0.989 ± 0.13,0.949 ± 0.13,1 ± 0.16,0.965 ± 0.17
ZCCHC9 (UniProt Q8N567),1.03 ± 0.035,1.04 ± 0.054,1.11 ± 0.04,1.16 ± 0.072,1.18 ± 0.083,1.2 ± 0.12,1.19 ± 0.12,1.27 ± 0.033
UniProt Q8IX90,0.962 ± 0.019,0.959 ± 0.025,0.99 ± 0.065,0.971 ± 0.079,0.95 ± 0.042,0.977 ± 0.041,0.989 ± 0.057,1.01 ± 0.058
RNF214 (UniProt Q8ND24),0.971 ± 0.085,0.97 ± 0.093,0.971 ± 0.093,0.931 ± 0.088,0.916 ± 0.093,0.911 ± 0.071,0.942 ± 0.079,0.912 ± 0.083
UniProt Q8TBX8 and related entries,0.982 ± 0.028,1.01 ± 0.028,0.975 ± 0.087,0.985 ± 0.03,0.936 ± 0.064,0.949 ± 0.032,0.929 ± 0.062,0.921 ± 0.03

# Single records (already shown). Values in the order: NP40-soluble protein abundance (concentration: 0.1mM) | NP40-soluble protein abundance (concentration: 0.5mM) | NP40-soluble protein abundance (concentration: 1mM) | NP40-soluble protein abundance (concentration: 2mM) | NP40-soluble protein abundance (concentration: 4mM) | NP40-soluble protein abundance (concentration: 6mM) | NP40-soluble protein abundance (concentration: 8mM) | NP40-soluble protein abundance (concentration: 10mM)
# GCC2 (UniProt Q8IWJ2) is listed with 0.972 ± 0.04 | 0.957 ± 0.043 | 0.998 ± 0.054 | 0.967 ± 0.078 | 0.96 ± 0.078 | 0.941 ± 0.06 | 0.993 ± 0.019 | 0.953 ± 0.05
# UniProt Q8NB15-2 is listed with 1.04 ± 0.17 | 1.03 ± 0.12 | 1.03 ± 0.15 | 1.04 ± 0.19 | 0.989 ± 0.13 | 0.949 ± 0.13 | 1 ± 0.16 | 0.965 ± 0.17
